Article PMC5074805
Results are given in words; binding and its absence hold for the method and conditions named.

Target: 30S ribosomal protein S20 (RPS20) from Thermus thermophilus (Thermus thermophilus) (UniProt P80380)
Test: SEC-MALS; static light scattering: Superdex S200 gel size exclusion column coupled to a miniDAWN Tristar laser photometer and a differential refractometer; buffer A (50 mM Tris pH 8, 150 mM NaCl); both purified

B1: 30S ribosomal protein S20 (RPS20) from Thermus thermophilus (protein, UniProt P80380 1-106)
chain: MAQKKPKRNLSALKRHRQSLKRRLRNKAKKSAIKTLSKKAIQLAQEGKAEEALKIMRKAESLIDKAAKGSTLHKNAAARRKSRLMRKVRQLLEAAGAPLIGGGLSA
Q: Which binding does the source give for B1 here?
A: Its binding is “no binding”.
